# Source: the supplement of paper PMC8728848
# This is one part of the list.
# What was measured:
# Assay in all cases: glycan array binding signal (z-score within array); higher = stronger binding
# Conditions in all cases: glycan notation: IUPAC condensed, linker removed
# [1] = molecular target: Fuc(a1-2)Gal
# Method in brief: (§1)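 Columns mapping to the same glycan were averaged after glycan names were converted to IUPAC-condensed notation. The data come from 3228 arrays in the Consortium for Functional Glycomics database, limited to those with an available protein sequence. Binding is reported as a within-array Z-score averaged across arrays of one protein sequence and across linkers.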
# [2] = molecular target: Fuc(a1-2)Gal(b1-3)GalNAc
# Method in brief: as §1
# [3] = molecular target: Fuc(a1-2)Gal(b1-3)GalNAc(a1-3)[Fuc(a1-2)]Gal(b1-4)Glc
# Method in brief: as §1
# [4] = molecular target: Fuc(a1-2)Gal(b1-3)GalNAc(a1-3)[Fuc(a1-2)]Gal(b1-4)GlcNAc
# Method in brief: as §1
# [5] = molecular target: Fuc(a1-2)Gal(b1-3)GalNAc(b1-3)Gal
# Method in brief: as §1
# [6] = molecular target: Fuc(a1-2)Gal(b1-3)GalNAc(b1-3)Gal(a1-4)Gal(b1-4)Glc
# Method in brief: as §1
# [7] = molecular target: Fuc(a1-2)Gal(b1-3)GalNAc(b1-4)[Neu5Ac(a2-3)]Gal(b1-4)Glc
# Method in brief: as §1
# [8] = molecular target: Fuc(a1-2)Gal(b1-3)GlcNAc
# Method in brief: as §1
# [9] = molecular target: Fuc(a1-2)Gal(b1-3)GlcNAc(b1-2)Man(a1-3)[Fuc(a1-2)Gal(b1-3)GlcNAc(b1-2)Man(a1-6)]Man(b1-4)GlcNAc(b1-4)GlcNAc
# Method in brief: as §1
# [10] = molecular target: Fuc(a1-2)Gal(b1-3)GlcNAc(b1-2)Man(a1-3)[Fuc(a1-2)Gal(b1-3)GlcNAc(b1-2)Man(a1-6)]Man(b1-4)GlcNAc(b1-4)[Fuc(a1-6)]GlcNAc
# Method in brief: as §1
# [11] = molecular target: Fuc(a1-2)Gal(b1-3)GlcNAc(b1-3)Gal(b1-4)Glc
# Method in brief: as §1
# [12] = molecular target: Fuc(a1-2)Gal(b1-3)GlcNAc(b1-3)GalNAc
# Method in brief: as §1
# [13] = molecular target: Fuc(a1-2)Gal(b1-3)GlcNAc(b1-3)[Fuc(a1-2)Gal(b1-3)GlcNAc(b1-6)]GalNAc
# Method in brief: as §1
# [14] = molecular target: Fuc(a1-2)Gal(b1-3)GlcNAc(b1-3)[Gal(b1-4)GlcNAc(b1-6)]Gal(b1-4)Glc
# Method in brief: as §1
# [15] = molecular target: Fuc(a1-2)Gal(b1-3)GlcNAc(b1-3)[Neu5Ac(a2-6)Gal(b1-4)GlcNAc(b1-6)]Gal(b1-4)Glc
# Method in brief: as §1
# [16] = molecular target: Fuc(a1-2)Gal(b1-3)GlcNAc6S
# Method in brief: as §1
# [17] = molecular target: Fuc(a1-2)Gal(b1-3)[Fuc(a1-4)]GlcNAc
# Method in brief: as §1
# [18] = molecular target: Fuc(a1-2)Gal(b1-3)[Fuc(a1-4)]GlcNAc(b1-2)Man(a1-3)[Fuc(a1-2)Gal(b1-3)[Fuc(a1-4)]GlcNAc(b1-2)Man(a1-3)]Man(b1-4)GlcNAc(b1-4)GlcNAc
# Method in brief: as §1
# [19] = molecular target: Fuc(a1-2)Gal(b1-3)[Fuc(a1-4)]GlcNAc(b1-2)Man(a1-3)[Fuc(a1-2)Gal(b1-3)[Fuc(a1-4)]GlcNAc(b1-2)Man(a1-6)]Man(b1-4)GlcNAc(b1-4)[Fuc(a1-6)]GlcNAc(b1-4)[Fuc(a1-6)]GlcNAc
# Method in brief: as §1
# [20] = molecular target: Fuc(a1-2)Gal(b1-3)[Fuc(a1-4)]GlcNAc(b1-3)[Fuc(a1-3)[Gal(b1-4)]GlcNAc(b1-6)]Gal(b1-4)Glc
# Method in brief: as §1
# [21] = molecular target: Fuc(a1-2)Gal(b1-3)[Fuc(a1-4)]GlcNAc(b1-3)[Gal(b1-4)GlcNAc(b1-6)]Gal(b1-4)Glc
# Method in brief: as §1
# [22] = molecular target: Fuc(a1-2)Gal(b1-4)Glc
# Method in brief: as §1
# [23] = molecular target: Fuc(a1-2)Gal(b1-4)Glc6S
# Method in brief: as §1
# [24] = molecular target: Fuc(a1-2)Gal(b1-4)GlcNAc
# Method in brief: as §1
# [25] = molecular target: Fuc(a1-2)Gal(b1-4)GlcNAc(b1-2)Man
# Method in brief: as §1
# [26] = molecular target: Fuc(a1-2)Gal(b1-4)GlcNAc(b1-2)Man(a1-3)[Fuc(a1-2)Gal(b1-4)GlcNAc(b1-2)Man(a1-6)]Man(b1-4)GlcNAc(b1-4)GlcNAc
# Method in brief: as §1
# [27] = molecular target: Fuc(a1-2)Gal(b1-4)GlcNAc(b1-2)Man(a1-3)[Fuc(a1-2)Gal(b1-4)GlcNAc(b1-2)Man(a1-6)]Man(b1-4)GlcNAc(b1-4)[Fuc(a1-6)]GlcNAc
# Method in brief: as §1
# [28] = molecular target: Fuc(a1-2)Gal(b1-4)GlcNAc(b1-2)[Fuc(a1-2)Gal(b1-4)GlcNAc(b1-4)]Man(a1-3)[Fuc(a1-2)Gal(b1-4)GlcNAc(b1-2)Man(a1-6)]Man(b1-4)GlcNAc(b1-4)GlcNAc
# Method in brief: as §1
# [29] = molecular target: Fuc(a1-2)Gal(b1-4)GlcNAc(b1-3)Gal(b1-4)GlcNAc
# Method in brief: as §1
# [30] = molecular target: Fuc(a1-2)Gal(b1-4)GlcNAc(b1-3)Gal(b1-4)GlcNAc(b1-2)Man(a1-3)[Fuc(a1-2)Gal(b1-4)GlcNAc(b1-3)Gal(b1-4)GlcNAc(b1-2)Man(a1-6)]Man(b1-4)GlcNAc(b1-4)GlcNAc
# Method in brief: as §1
binder,measurement,setting,value
EUL D1A (Oryza sativa) (protein) MFGFGHHHNQAPAAPSDPNQIFKIFCRANENYCLTVRDSAVVLAPVNPKDEHQHWFKDMRFSTKVKDGEGMPAFALVNKATGLAVKHSLGQSHPVKLVPFNPEYEDASVLWTESKDVGKGFRCIRMVNNTRLNLDAFHGDKDHGGVRDGTTVVLWEWCKGDNQSWKILPWGPEAHSSSPGAATACTIGGVPVHTVRVFSAAGEDYCLTVRNGTACLAPKNPRDDYQHWIKDMRHSNKIRDEEGYPAFALVNKVTGEAIKHSTGQGHPVKLVPYNPEYQDESVLWTESKDVGKGFRCIRMVNNIYLNFDAFHGDKDHGGIHDGTEIVLWKWCEGDNQRWKILPWILEQKLISEEDLNSAVDHHHHHH,glycan array binding signal (z-score),[1],-0.252
same,glycan array binding signal (z-score),[2],-0.934
same,glycan array binding signal (z-score),[3],1.11
same,glycan array binding signal (z-score),[4],-0.481
same,glycan array binding signal (z-score),[5],-2.05
same,glycan array binding signal (z-score),[6],-0.463
same,glycan array binding signal (z-score),[7],0.453
same,glycan array binding signal (z-score),[8],-0.58
same,glycan array binding signal (z-score),[9],1.28
same,glycan array binding signal (z-score),[10],-0.846
same,glycan array binding signal (z-score),[11],0.068
same,glycan array binding signal (z-score),[12],1.63
same,glycan array binding signal (z-score),[13],-0.046
same,glycan array binding signal (z-score),[14],-0.123
same,glycan array binding signal (z-score),[15],-0.444
same,glycan array binding signal (z-score),[16],0.203
same,glycan array binding signal (z-score),[17],-0.663
same,glycan array binding signal (z-score),[18],0.914
same,glycan array binding signal (z-score),[19],2.92
same,glycan array binding signal (z-score),[20],-0.224
same,glycan array binding signal (z-score),[21],1.23
same,glycan array binding signal (z-score),[22],-1.99
same,glycan array binding signal (z-score),[23],-0.067
same,glycan array binding signal (z-score),[24],0.007
same,glycan array binding signal (z-score),[25],0.232
same,glycan array binding signal (z-score),[26],-0.008
same,glycan array binding signal (z-score),[27],1.27
same,glycan array binding signal (z-score),[28],-0.681
same,glycan array binding signal (z-score),[29],0.141
same,glycan array binding signal (z-score),[30],-0.433

# 2 entries from above, with bars between the fields.
binder | measurement | setting | value
EUL D1A (Oryza sativa) (protein) MFGFGHHHNQAPAAPSDPNQIFKIFCRANENYCLTVRDSAVVLAPVNPKDEHQHWFKDMRFSTKVKDGEGMPAFALVNKATGLAVKHSLGQSHPVKLVPFNPEYEDASVLWTESKDVGKGFRCIRMVNNTRLNLDAFHGDKDHGGVRDGTTVVLWEWCKGDNQSWKILPWGPEAHSSSPGAATACTIGGVPVHTVRVFSAAGEDYCLTVRNGTACLAPKNPRDDYQHWIKDMRHSNKIRDEEGYPAFALVNKVTGEAIKHSTGQGHPVKLVPYNPEYQDESVLWTESKDVGKGFRCIRMVNNIYLNFDAFHGDKDHGGIHDGTEIVLWKWCEGDNQRWKILPWILEQKLISEEDLNSAVDHHHHHH | glycan array binding signal (z-score) | [13] | -0.046
same | glycan array binding signal (z-score) | [15] | -0.444
